Laboratory results from US20240254129A1, “HETEROCYCLIC COMPOUNDS AND USES THEREOF” (Kumquat Biosciences Inc., priority 2021, published 2024).
pIC50: −log10 of the molar value. The structures given here were assigned with low confidence; some may be wrong.

By UniProt entry, the sequences of proteins in these tests, tags left out. Residues count along the entry.
UniProt P01116, 1-188 isoform 2: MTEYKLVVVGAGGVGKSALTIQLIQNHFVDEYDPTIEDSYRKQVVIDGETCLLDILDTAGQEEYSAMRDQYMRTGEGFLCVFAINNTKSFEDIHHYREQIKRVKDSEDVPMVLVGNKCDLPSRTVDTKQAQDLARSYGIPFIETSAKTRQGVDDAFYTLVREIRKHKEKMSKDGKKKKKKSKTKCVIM
UniProt P01116, whole entry G12D: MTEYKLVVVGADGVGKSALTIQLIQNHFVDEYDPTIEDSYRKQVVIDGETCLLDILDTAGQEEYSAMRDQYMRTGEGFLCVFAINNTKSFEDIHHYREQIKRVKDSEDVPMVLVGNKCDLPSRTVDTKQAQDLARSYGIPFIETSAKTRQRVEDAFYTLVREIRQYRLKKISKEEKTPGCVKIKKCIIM

Assays:
[1] = biological target: wildtype Kras / hSOS1 (Homo sapiens, UniProt P01116); test: HTRF assay, wildtype Kras / SOS1 interaction; details: read-out: IC50 against wildtype Kras; compound nos. 401-703
[2] = biological target: GST-tagged K-Ras mutant / His-tagged hSOS1 (Homo sapiens, UniProt P01116); test: HTRF assay, K-Ras mutant / SOS1 interaction; details: read-out: IC50 against mutant Kras; compound nos. 401-703

## Fc1c(N2CCc3ccccc3C2)ccc2c(N3CCCCCC3)nc(OCC34CCCN3CCC4)nc12
[1]
  pIC50: > 6.30
[2]
  pIC50: < 6.30
